Assay [1] deals with T1, peptide representing the neo-epitope of the cell membrane-bound ADAM17-cleavage product of human AREG (human).
T1 sequence (peptide): THSMIDSSLSKI
Kind of assay: ELISA on peptides, rabbit IgG. Background: An ELISA detects its analyte on a solid surface through an enzyme-linked reagent.

Assay [2] has the same target. Kind of assay: ELISA, plate coated with 5 µg/mL cleaved-AREG peptide, antibody 0.001-1 µg/mL.

This note sets out measurements from patent publication US20220411532A1 (GUNDERSEN LUTHERAN MEDICAL FOUNDATION, published 2022).

No constants are given. Whether binding was seen depends on the method and setting. Some results given as binding are weak or reduced against the parent protein; the word gives no strength.

B1: GMF-3E4 rabbit monoclonal IgG antibody (antibody, V domains shown)
VH: QSVKESEGRLVTPGTPLTLTCTVSGFSLSDYWMSWVRQAPGKGLEWIGIAGYSDNTYYASRAKGRFTISKTSTTVVLKITRPTTEDTATYFCVRDLYGVYSSGTTLWGPGTLVTVSS
VL: ELVMTQTPSPVSAAVGGTVTISCQSSQSVYNNNRLAWFQQKPGQPPKLLIYYASTLASGVSSRFKGSGSGTQFTLIISDVVCDDAATYYCQGYYSGGITGFGGGTEVVVK
For B1, the binding entry in assay [1] is “binds”.

B2: GMF-1A3 rabbit monoclonal IgG antibody (antibody, V domains shown)
VH: QSVKESEGRLVTPGTPLRLTCTVAGYSLSRYHMCWVRQAPGKGLEWIGMIGGSGRTDYASWAKGRFTISKTSTTVDLKITSPTTEDTATYFCSTVYTDSDGDFWGPGTLVTVSS
VL: ELDMTQTPSSKSVPVGGTVTINCQASESVYSNDRLAWFQQKPGQPPKLLIYYASTLASGVPSRFKGSGSGTQFTLTISDLECADAATYYCQSCYDMSSYGVAFGGGTELEIL
notes: also called anti-cleaved-AREG 1A3 antibody; unconjugated 1A3
Take B2: the binding entry in assay [1] and in assay [2] was “binds” in each case.
